Drawing on PubChem BioAssay AID2685 (National Center for Advancing Translational Sciences (NCATS), 2010), this text covers cell number change and AC50 for 62 compounds.

The other results are listed elsewhere or left out. Further columns of the screen follow, without active or inactive calls. Compounds called inactive in the main read-out are mostly missing here. The note in brackets gives the kind of curve behind each potency; many fits are weak.

The nature of this test: qHTS Assay for Lipid Storage Modulators in Drosophila S3 Cells.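 As to cell number change: cells counted by Cell Tracker Red CMTPX staining in the red channel.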 The settings on record: BODIPY lipid droplet fluorescence, 18-24 h; for cell number change: measured here: cell count max response, cells fed with added oleic acid. The procedure, abridged: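 Drosophila S3 cells loaded with oleic acid (400 uM, as added) and compounds at several concentrations; lipid droplets imaged by 488-nm laser-scanning cytometry, 500–530 nm intensity and object ratio to cell channel. Percent activity normalized to 20 uM Triacsin C.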
For orientation: In qHTS, concentration-response curves come from the screen itself.

Where [1] appears, read: measured here: lipid fluorescence (Fed channel) AC50, cells fed with added oleic acid.
Where [2] appears, read: measured here: cell number channel AC50, cells fed with added oleic acid.

As a reminder, the AC50 is the concentration giving half of the maximal activity seen. A high value points to activity only at high concentration.

As for `COc1ccc(/C=N/Nc2nn3cnnc3c3ccccc23)cc1`, the cell number change is -25.3%. The AC50 under setting [1] was 16.4 µM [falling, single point].
Regarding `O=C1CC(=O)N(CCc2ccc(F)cc2)C(=O)N1`, the cell number change was -8.77%.
For `Cc1ccc(Cn2ccc(NC(=O)c3cc(-c4cccs4)on3)n2)cc1`, the cell number change was -19.7%. Also, under setting [1], the half-maximal activity concentration (AC50) was 1.03 µM [rising, partial curve].
As for `CC(=O)Nc1c(C)ccc(CNC(=O)COc2ccc(F)cc2)c1C`, the cell number change is 46.6%. In addition, under setting [2], the AC50 was 0.82 µM [rising, full curve]. Further, the AC50 under setting [1] is 2.31 µM [rising, partial curve].
Take `COc1ccc(SCC(=O)Nc2ccccc2Cl)cc1`: the cell number change is -4%. Also, the AC50 under setting [2] is 1.3 µM [falling, full curve]. Moreover, the AC50 under setting [1] was 1.16 µM [falling, full curve].
In the case of `Cc1cccc2sc(N(CCCN(C)C)C(=O)c3ccc4ncsc4c3)nc12`, the cell number change is 1.19%. Moreover, the AC50 under setting [1] is 7.31 µM [rising, partial curve].
As for `COc1ccc(NC(=O)CSc2nc(SC)ns2)cc1`, the cell number change was -12.8%. In addition, under setting [1], the AC50 is 5.17 µM [falling, single point].
Consider `CCOC(=O)c1sc(N)nc1C(C)(C)C`, for which the cell number change stood at 29.9%. Besides, the AC50 under setting [1] is 16.4 µM [rising, partial curve, poor fit].
For the compound `Cc1ccc(-c2cc(C(=O)Nc3cccnc3)c3ccccc3n2)s1`, the cell number change was 48.4%. For the same compound, under setting [2], the AC50 was 17.8 µM [rising, partial curve].
Regarding `COc1cc(OC)nc(Oc2ccc(N)c(C)c2)n1`, the cell number change was -18%. For the same compound, the AC50 under setting [1] was 0.0651 µM [falling, full curve, poor fit].
Turning to `CCOC(=O)c1sc(NC(=O)c2ccc(S(=O)(=O)N(C)C)cc2)nc1C`, under setting [1], the AC50 is 0.326 µM [rising, full curve].
For `Cc1cc(C)c(C)c(OCC(O)CN2CCN(c3ccccn3)CC2)c1` (configuration not stated), the cell number change was 5.67%. Further, the AC50 under setting [1] was 0.92 µM [rising, partial curve].
Take `O=C(CCn1c(=O)c2sccc2n(CC(=O)NCc2ccco2)c1=O)NCc1ccccc1`: the AC50 is 1.46 µM [rising, partial curve] under setting [2] and 6.51 µM [rising, single point] under setting [1].
In the case of `c1ccc(-n2nnnc2OCCOc2nnnn2-c2ccccc2)cc1`, the cell number change stood at 8.29%. Moreover, the AC50 under setting [1] is 0.146 µM [rising, full curve, poor fit].
For the compound `COc1ccccc1CN1CCC(n2nccc2NC(=O)CCOc2ccccc2)CC1`, the cell number change is 31.3%. Also, the AC50 under setting [2] is 20.6 µM [rising, single point]. For the same compound, under setting [1], the AC50 was 13 µM [rising, partial curve].
Consider `CSc1ccc(CN(C)C(=O)COc2ccc(C(=O)c3ccccc3)cc2)cc1`, for which the cell number change is 3.85%.
For the compound `CCOc1ccccc1-c1nc(CN(Cc2cnn(C)c2)C(C)C)c(C)o1`, the cell number change is -13.2%. In addition, under setting [2], the AC50 is 0.517 µM [falling, full curve, poor fit].
`CC(=O)NC1CC2CCCC(C1)N2S(=O)(=O)c1cccc(F)c1` (configuration not stated): the cell number change worked out at 4.13%.
`COc1ccc(CN2CC(C(=O)NCCc3ccc(Cl)cc3)CC2=O)cc1` (configuration not stated): the cell number change was found to be 6.73%.
On to `O=C(Nc1ccc(NC(=O)c2sc3ccccc3c2Cl)cc1Cl)c1ccco1`, for which the AC50 under setting [1] was 25.9 µM [falling, partial curve].
For `Cc1occc1-c1nnc(SCC(=O)c2c(N)n(C3CC3)c(=O)[nH]c2=O)n1C`, the cell number change came out at 14.6%. Moreover, the AC50 under setting [2] was 0.411 µM [rising, single point].
Regarding `CC12CC3(C)CC(C)(C1)CC(C(=O)NCc1ccccn1)(C2)C3`, the cell number change is -47.5%.
As for `CN(C)c1ccc(C=NCC2COc3ccccc3O2)cc1` (configuration not stated), the cell number change turned out to be 5.01%. Further, the AC50 under setting [1] is 10.3 µM [rising, single point].
With `COc1ccccc1NC(=O)CCSc1nnc(-c2ccc(O)cc2)o1`, the half-maximal activity concentration (AC50) under setting [1] was 2.31 µM [falling, partial curve].
`COc1cccc(-c2nnc(NC(=O)c3cccs3)s2)c1`: the cell number change worked out at 9.54%. Also, the AC50 under setting [1] was 3.66 µM [rising, full curve].
`CC(=O)c1cccc(N(C(=O)CNC(=O)c2cccs2)C(C(=O)NCC2CCCO2)c2ccccc2)c1` (configuration not stated): the cell number change was found to be 12.4%. The AC50 under setting [1] was 29.1 µM [falling, single point].
`COC(=O)N/N=C/c1c(C)cc(C)cc1C`: the cell number change was 11.7%. Besides, the AC50 under setting [1] was 0.291 µM [rising, partial curve, poor fit].
For the compound `CC(OC(=O)CN1C(=O)NC(C)(C)C1=O)C(=O)c1ccccc1` (configuration not stated), the cell number change was -111%. Further, the AC50 under setting [2] was 25.9 µM [falling, partial curve]. Under setting [1], the concentration at half-maximal activity (AC50) is 6.51 µM [falling, single point].
On to `CCOC(=O)c1sc2nc(N3CCOCC3)c3c(c2c1N)CC(C(C)C)OC3` (configuration not stated), for which the cell number change is 17.7%. The AC50 under setting [1] was 0.291 µM [rising, full curve, poor fit].
With `Cc1ccc2c(c1)c(Sc1ccccc1)c(CC(=O)O)n2C`, the cell number change is -3.13%. Under setting [1], the AC50 was 1.84 µM [falling, partial curve].
As for `Cc1cc(NC(=O)c2cc(F)c(F)cc2Cl)no1`, the cell number change was -5.47%. Under setting [1], the AC50 was 0.461 µM [rising, single point].
Consider `CC(=O)c1sc(Nc2ccccn2)nc1C`, for which the cell number change was -13.9%. For the same compound, the AC50 under setting [1] is 0.0517 µM [rising, full curve, poor fit].
Take `COc1ccc(S(=O)(=O)Nc2ccc(S(=O)(=O)Nc3ccc(F)cc3)cc2)cc1C`: the cell number change is -57.5%. Also, the AC50 under setting [2] is 14.6 µM [falling, partial curve]. For the same compound, the half-maximal activity concentration (AC50) under setting [1] is 18.4 µM [falling, partial curve].
`COc1cccc(C2C(C#N)=C(N)Oc3cc(C)oc(=O)c32)c1OC` (configuration not stated): the cell number change is -0.491%. Moreover, the AC50 under setting [1] was 1.84 µM [rising, partial curve, poor fit].
Turning to `CCN(C(=O)CSc1nnc(-c2ccc(F)cc2)c2ccccc12)C1CCS(=O)(=O)C1` (configuration not stated), the AC50 under setting [1] was 3.26 µM [rising, single point].
On to `COc1ccc(C(=O)NCc2nnc(SCC(=O)N3CCc4ccccc43)o2)cc1OC`, for which the cell number change was 41.8%. For the same compound, the AC50 under setting [2] was 0.291 µM [rising, partial curve]. Also, under setting [1], the AC50 is 0.092 µM [rising, full curve, poor fit].
Turning to `CCOC(=O)C1CCN(CC(C)(C)NS(=O)(=O)c2ccccc2)CC1`, the cell number change amounted to 15.7%. The AC50 under setting [1] was 29.1 µM [falling, single point].
Turning to `Cc1ccc(OCC(=O)Nc2ccc(N3CCN(S(C)(=O)=O)CC3)cc2)cc1C`, the cell number change is 13.4%. The AC50 under setting [1] is 7.31 µM [rising, partial curve, poor fit].
For `CCOCCCNC(=S)NCCCNc1nc2c(C)c(C)ccc2cc1C#N`, the cell number change was -45.2%. The AC50 under setting [2] is 7.31 µM [falling, partial curve]. Besides, the AC50 under setting [1] was 6.51 µM [falling, single point].
For `CCCc1ncc(C(O)c2cccc(OC)c2OC)n1C` (configuration not stated), the cell number change was -10.3%.
For `CCN(CC)c1ccc(C2NC(=O)NC(C)=C2C(=O)Nc2ccccc2)cc1` (configuration not stated), the AC50 under setting [1] is 0.146 µM [falling, full curve, poor fit].
Regarding `CCC(CC)NC(=O)CO/N=C/c1ccc(Cl)cc1Cl`, the cell number change is 20%. Besides, under setting [1], the AC50 was 29.1 µM [rising, single point].
Regarding `C=CCn1c(SCC(=O)Nc2ccc3c(c2)OCO3)nnc1-c1ccccc1`, the cell number change amounted to 9.66%. In addition, the half-maximal activity concentration (AC50) under setting [1] is 0.517 µM [rising, full curve, poor fit].
On to `CC(C)CN(C(=O)COC(=O)CNC(=O)c1ccc(Cl)cc1)C1CCS(=O)(=O)C1` (configuration not stated), for which the cell number change came out at 41%. The AC50 under setting [2] is 13 µM [rising, single point]. Besides, the AC50 under setting [1] is 4.61 µM [rising, partial curve].
Regarding `Cn1ncc([N+](=O)[O-])c1C(=O)N/N=C/c1cccc([N+](=O)[O-])c1`, the cell number change is 0.998%. For the same compound, the AC50 under setting [1] was 7.31 µM [falling, full curve].
On to `C/C(=N\NC(=O)c1c(C)nc2ccccn12)c1ccccc1F`, for which the cell number change is -7.69%. The AC50 under setting [1] is 29.1 µM [rising, single point].
As for `Cc1ccn2cc(-c3ccc4c(c3)NC(=O)CO4)nc2c1`, the cell number change was found to be 19.5%.
Turning to `CC1CCN(S(=O)(=O)c2ccc3c(c2)oc(=O)n3CC(=O)N2CCc3ccccc3C2)CC1`, the cell number change was determined as 6.44%. Besides, the AC50 under setting [1] was 0.058 µM [falling, full curve, poor fit].
Turning to `O=[N+]([O-])/C=C/c1c(OCc2ccccc2)ccc2ccccc12`, the cell number change turned out to be 15.8%. The AC50 under setting [1] is 6.51 µM [falling, single point].
As for `Cc1cc(OCC(=O)N2CCCCCC2)ccc1[N+](=O)[O-]`, the cell number change turned out to be 3.3%. Further, the AC50 under setting [2] was 6.51 µM [falling, single point].
As to `Cn1cccc1C(=O)NCC1CCCCC1`, under setting [1], the half-maximal activity concentration (AC50) was 15.8 µM [rising, partial curve].
`CCCCN(C(=O)CCC(=O)Nc1cc(C)on1)C(C(=O)NC1CCCC1)c1cccc(OC)c1` (configuration not stated): the cell number change was -3.91%. Moreover, the AC50 under setting [1] is 6.51 µM [rising, partial curve, poor fit].
Regarding `Cc1ccc(C)c(N2CCN(S(=O)(=O)c3ccc4c(c3)NC(=O)CS4)CC2)c1`, the cell number change was found to be 21.8%. The half-maximal activity concentration (AC50) under setting [1] was 29.1 µM [rising, single point].
For `COC(=O)COn1c(SC(C)C)nc2ccccc2c1=O`, the cell number change is -18.9%. The AC50 under setting [1] was 1.64 µM [falling, partial curve, poor fit].
For `CN(C)C(/C=C/Nc1ccc(O)cc1)=C(C#N)C#N`, the cell number change is -14.7%.
Turning to `Cc1cccc(S(=O)(=O)CC(=O)Nc2nc(-c3ccccc3)cs2)c1`, the cell number change is -4.72%.
In the case of `C/C(=C/CCC(C)[C@H]1CC[C@@]2(C)C3=C(CC[C@]12C)[C@@]1(C)CCC(=O)C(C)(C)[C@@H]1CC3)C(=O)O` (some centres not stated), the cell number change is -46.2%. Also, the half-maximal activity concentration (AC50) under setting [2] was 29.1 µM [falling, single point]. Also, under setting [1], the AC50 is 7.31 µM [falling, single point].
On to `O=C(NC1CC1)C(Cl)c1ccccc1` (configuration not stated), for which the cell number change was determined as 0.901%. The AC50 under setting [1] was 0.58 µM [falling, single point].
Turning to `COc1cc2c(C(=O)NCCN(C)C)cn(CC(C)C)c(=O)c2cc1OC`, the cell number change is -46.6%. Also, the AC50 under setting [1] is 0.651 µM [falling, full curve].
As for `Cn1nc(-c2ccccc2)c2cc([N+](=O)[O-])ccc21`, the cell number change was -44.4%. Also, the AC50 under setting [2] is 11.6 µM [falling, partial curve, poor fit].
As for `C=CCNC(=S)Nc1nc2c(cc1C(=O)OCC)COC(C)(C)C2`, the cell number change was -2.11%.
Turning to `Cc1nc2c(-c3ccc(F)cc3)cnn2c(N)c1-c1ccc(F)cc1`, the cell number change is -28%. Further, the half-maximal activity concentration (AC50) under setting [1] was 29.1 µM [falling, single point].
